Data as given in patent US11980620B2, “Compounds and methods for treatment of Diamond Blackfan anemia” (THE CHILDREN'S MEDICAL CENTER CORPORATION, priority 2017, dated 2024).
At least one compound was matched to its structure with a doubt left.

What was measured:
[1] = test system: mice with irradiation-induced anemia; test: Irradiation-induced anemia in mice, peripheral blood RBC counts and hematocrit; type: in vivo, mouse; conditions: 1 mg/kg Dex (sodium-phosphate), 3 weeks; p=0.003
Description: (FIG. 10A) SMER28 rescues RBC output in rps29^+/− zebrafish embryos. The level of hemoglobin in the yolk sac was visualized 40hpf with benzidine staining. Images are representative of the proportion of embryos indicated (of total counted). (FIG. 10B) Quantitation of SMER28 rescue for a range of 0.1-1 μM, with embryos grouped by high, medium, and low levels of hemoglobin staining. (FIG. 10C) Peripheral blood (PB) RBC counts and hematocrit in mice with irradiation-induced anemia. Mice were treated with the PEG400-based vehicle containing DMSO (VEH) (n=11), 1 mg/kg Dex (sodium-phosphate) (n=13), or 10 mg/kg SMER28 (n=9) for 3 weeks, bled, and assessed. Data are combined from 3 independent experiments. (FIG. 10D) Erythroid cells as proportion of the human graft in mice transplanted with DBA CD34-5F progenitors, and treated as in (FIG. 1c). (FIG. 10E) Levels of human engraftment in NSG mouse bone marrow (BM) transplanted with CB CD34^+ cells. Mice were treated with DMSO plus vehicle (VEH) (n=10), 1 mg/kg Dex (sodium-phosphate) (n=6), or 2 mg/kg SMER28 (n=11) for 4 weeks. (FIG. 10F) The proportion of erythroid, myeloid, and lymphoid (B cells) lineages within the human graft in vehicle- and SMER28-treated mice transplanted with CB CD34^+ cells. Only the effect on the erythroid lineage was significant. Data in FIGS. 10E-10G are pooled from 2 independent experiments. […]

[2] = test system: K562 erythroleukemia cells transduced with shRPS19; test: Autophagy induction (p62, LC3-I, LC3-II protein levels) in K562 cells transduced with shRPS19; type: cell-based, human; conditions: Rapamycin 200 nM, positive control; bafilomycin A 200 nM for 4 hours
Description: (FIG. 13A) Induction of autophagy by SMER28 (40 μM) monitored by protein levels of p62, LC3-I, and LC3-II after 24 hours. Cells were also treated with 5-FU (100 nM) to induce autophagy, or inhibitor of transcription actinomycin D (ActD; 100 nM). (FIG. 13B) Induction of autophagy by SMER28 (40 μM) monitored by protein levels of p62, LC3-I, and LC3-II after 24 hours treatment with or without lysosomal blockade with bafilomycin A (200 nM for 4 hours). Untreated samples are shown at higher exposure, to capture dynamic changes in the LC3-II levels. Rapamycin (200 nM) is a positive control. LC3-II levels relative to GAPDH are quantitated on the right. […] Representative flow plots and quantitation showing the number of erythroid cells induced by SMER28 (10 μM) normalized to DMSO. […] Representative images (left), and quantitation (right) with embryos grouped by high, medium, and low levels of benzidine staining.
SMER28 was identified as an mTOR-independent inducer of autophagy, by synergizing with rapamycin to promote clearance of protein aggregates in models of neurodegenerative disease (Sarkar et al., 2007; Tian et al., 2011). […] To measure autophagic flux, we monitored LC3-II levels after blocking lysosomal fusion with bafilomycin A. SMER28 increased LC3-II levels following lysosomal blockade, similarly to the mTOR inhibitor rapamycin (FIG. 13B). […]

SMILES | peripheral blood RBC / hematocrit response vs vehicle [1] | LC3-II levels following lysosomal blockade (autophagic flux) [2]
C[C@@H]1C[C@H]2[C@@H]3CCC4=CC(=O)C=C[C@]4(C)[C@@]3(F)[C@@H](O)C[C@]2(C)[C@@]1(O)C(=O)CO [Dex, Dexamethasone, reference compound] | more robust response | –
CO[C@H]1C[C@@H]2CC[C@@H](C)[C@@](O)(O2)C(=O)C(=O)N2CCCC[C@H]2C(=O)O[C@H]([C@H](C)C[C@@H]2CC[C@@H](O)[C@H](OC)C2)CC(=O)[C@H](C)/C=C(\C)[C@@H](O)[C@@H](OC)C(=O)[C@H](C)C[C@H](C)/C=C/C=C/C=C/1C [rapamycin, reference compound] | – | similarly
